Experimental data: PubChem BioAssay AID1259314 (Drosophila RNAi Screening Center, 2017)
Test: 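Transmembrane protein genes affecting ATP after manganese overload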 (primary screen). System: Drosophila S2R+ cells. Reagent: long dsRNA against Drosophila genes. Time to read-out: 5 days (4 days knock-down, then 1 day metal exposure). Treatment: manganese chloride added to 15 mM for 24 hours. Measured: 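Cellular ATP measured by luciferase light, scaled to the plate mean, averaged across replicates and z-scored over plates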. Scale: mean ATP z-score: higher = more ATP than the plate average, more viable cells under manganese. Call rule: 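a mean ATP z-score past 1.5 in either direction is called active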. Meaning of the calls: active = strong ATP change, up or down; inactive = no strong ATP change.
This is an unselected part of about 3,100 reagents tested. In the full data, 289 (9.3%) are marked active. 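Active includes both higher and lower ATP than plate average; check the z-score sign for direction.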 A plus sign joins genes that one reagent is predicted to hit. No sequences are given here. The record does not give: the amount of reagent.

Silencing of SERCA (Sarco/endoplasmic reticulum Ca(2+)-ATPase) [SID104184392] gave: mean ATP z-score 0.317; inactive.
SERCA (Sarco/endoplasmic reticulum Ca(2+)-ATPase) [SID104204739] scored mean ATP z-score -1.89; active.
With knock-down of CG2121 [SID104186611], the screen gave mean ATP z-score -0.357; inactive.
CG2121 [SID104186612] gave mean ATP z-score -0.175; inactive.
For Agpat2 (1-Acylglycerol-3-phosphate O-acyltransferase 2) [SID104183324], the entry reads mean ATP z-score 1.77; active.
Agpat2 (1-Acylglycerol-3-phosphate O-acyltransferase 2) [SID104206445] gave mean ATP z-score 0.107; inactive.
With knock-down of Targ (Tarag) [SID104185998], the record shows mean ATP z-score -1.06; inactive.
Depletion of CG32987 [SID104201856] gave: mean ATP z-score -1.39; inactive.
Against CG32987 [SID104207231], the entry reads mean ATP z-score -0.612; inactive.
Depletion of CG31431 [SID104194381] came out at: mean ATP z-score -0.367; inactive.
CG31431 [SID104217189] showed mean ATP z-score -0.804; inactive.
For CG7149 [SID104182808] the deposit lists mean ATP z-score -1.16; inactive.
Against CG7149 [SID104217392], the entry reads mean ATP z-score -0.934; inactive.
With knock-down of PGRP-LF + UGP [SID104190210] the results were mean ATP z-score -0.961; inactive.
For Tsp42Eh (Tetraspanin 42Eh) [SID104185982] the deposit lists mean ATP z-score 0.576; inactive.
After knock-down of Tsp42Eh (Tetraspanin 42Eh) [SID104217427] the results were mean ATP z-score 0.125; inactive.
CG32079 [SID104202044] gave mean ATP z-score -0.018; inactive.
With knock-down of CG32079 [SID104217001], the screen gave mean ATP z-score -0.0917; inactive.
After knock-down of Ir11a (Ionotropic receptor 11a) [SID104199491] the results were mean ATP z-score -0.139; inactive.
Against Ir11a (Ionotropic receptor 11a) [SID104217055] the deposit lists mean ATP z-score -0.516; inactive.
After knock-down of CG44247 + veg (retired record) [SID104187506], the screen gave mean ATP z-score -0.497; inactive.
After knock-down of CG9864 [SID104187138], the record shows mean ATP z-score -0.461; inactive.
CG9864 [SID104207309] gave mean ATP z-score 0.308; inactive.
CG7227 [SID104182824] gave mean ATP z-score 1.42; inactive.
Against CG7227 [SID104217041], the entry reads mean ATP z-score 0.957; inactive.

No new results follow: an excerpt of the list.
CG32987 [SID104207231]: mean ATP z-score = -0.612; call = inactive
CG31431 [SID104194381]: mean ATP z-score = -0.367; call = inactive
CG31431 [SID104217189]: mean ATP z-score = -0.804; call = inactive
CG7149 [SID104182808]: mean ATP z-score = -1.16; call = inactive

Further reagents follow:
Silencing of beta4GalT7 (beta-4-galactosyltransferase 7) [SID104194177] came out at: mean ATP z-score 0.534; inactive.
With knock-down of CG9483 [SID104183018], the record shows mean ATP z-score 1.47; inactive.
Against CG9483 [SID104208473], the entry reads mean ATP z-score 1.99; active.
Depletion of Ekar (Eye-enriched kainate receptor) [SID104196953] came out at: mean ATP z-score 0.715; inactive.
After knock-down of Ekar (Eye-enriched kainate receptor) [SID104203486] the results were mean ATP z-score 0.322; inactive.
Silencing of pHCl-1 (pH-sensitive chloride channel 1) [SID104189193] resulted in: mean ATP z-score 0.519; inactive.
For pHCl-1 (pH-sensitive chloride channel 1) [SID104189783] the deposit lists mean ATP z-score -0.241; inactive.
pHCl-1 (pH-sensitive chloride channel 1) [SID104190381] showed mean ATP z-score -0.366; inactive.
InR (Insulin-like receptor) [SID104196509] showed mean ATP z-score -0.128; inactive.
Against InR (Insulin-like receptor) [SID104214261], the values are mean ATP z-score 0.585; inactive.
Against InR (Insulin-like receptor) [SID104214262], the entry reads mean ATP z-score 0.217; inactive.
With knock-down of CG7992 [SID104199862], the record shows mean ATP z-score -0.112; inactive.
Drip [SID104187197] showed mean ATP z-score 1.17; inactive.
CG4576 [SID104195396] gave mean ATP z-score 2.01; active.
After knock-down of CG4576 [SID104204908], the record shows mean ATP z-score 0.229; inactive.
Silencing of sax (saxophone) [SID104187467] resulted in: mean ATP z-score 0.105; inactive.
sax (saxophone) [SID104205388] gave mean ATP z-score -0.262; inactive.
Against sax (saxophone) [SID104214580] the deposit lists mean ATP z-score -0.135; inactive.
After knock-down of dnt (doughnut on 2) [SID104204430], the screen gave mean ATP z-score 0.812; inactive.
Depletion of dnt (doughnut on 2) [SID104214325] came out at: mean ATP z-score 1.79; active.
Silencing of Sfxn1-3 (Sideroflexin 1/3) [SID104191975] resulted in: mean ATP z-score 0.809; inactive.
Cad74A (Cadherin 74A) [SID104190428] scored mean ATP z-score -1.23; inactive.
CG5810 [SID104201544] scored mean ATP z-score 0.443; inactive.
Against CG5810 [SID104217208], the entry reads mean ATP z-score 1.33; inactive.
With knock-down of Tsp97E (Tetraspanin 97E) [SID104195811], the screen gave mean ATP z-score -0.202; inactive.
Tsp97E (Tetraspanin 97E) [SID104206597] showed mean ATP z-score 0.194; inactive.
With knock-down of acs (arcus) [SID104187977] the results were mean ATP z-score 1.49; inactive.
Against acs (arcus) [SID104206173], the values are mean ATP z-score -0.0105; inactive.
CG31668 [SID104202006] gave mean ATP z-score 0.212; inactive.
After knock-down of CG31668 [SID104217077], the record shows mean ATP z-score -0.359; inactive.
Ir10a (Ionotropic receptor 10a) [SID104198683] gave mean ATP z-score 1.75; active.
Ir10a (Ionotropic receptor 10a) [SID104199270] gave mean ATP z-score -0.266; inactive.
Ir10a (Ionotropic receptor 10a) [SID104199271] scored mean ATP z-score -0.454; inactive.
Depletion of frac (faulty attraction) [SID104190659] gave: mean ATP z-score 0.109; inactive.
After knock-down of frac (faulty attraction) [SID104207783], the record shows mean ATP z-score -0.505; inactive.
